The full ranking holds about 33,000 sequences; the median of “E-score (-0.5 to 0.5)” is about -0.0014, and the highest 2% start at about 0.25. The list shows a part of the results.
Molecular target: T1, Cad1 (UniProt P24813)
T1 sequence: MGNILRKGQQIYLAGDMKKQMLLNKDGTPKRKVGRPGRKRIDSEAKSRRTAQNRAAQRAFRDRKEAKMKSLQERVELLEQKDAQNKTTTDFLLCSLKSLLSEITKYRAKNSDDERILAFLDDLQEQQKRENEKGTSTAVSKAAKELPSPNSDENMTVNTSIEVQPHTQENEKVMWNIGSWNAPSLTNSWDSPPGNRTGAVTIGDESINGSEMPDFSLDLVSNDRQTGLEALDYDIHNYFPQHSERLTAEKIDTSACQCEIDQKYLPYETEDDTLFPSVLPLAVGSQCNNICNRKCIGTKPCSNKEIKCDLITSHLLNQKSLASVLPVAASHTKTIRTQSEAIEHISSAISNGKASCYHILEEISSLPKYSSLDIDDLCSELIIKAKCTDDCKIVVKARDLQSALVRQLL
Assay: PBM E-score (8-mer binding enrichment) (E-score (-0.5 to 0.5)); higher = stronger / more preferred TF binding
Conditions: protein concentration: 100 nM; construct: GST-full length
Summary of the method: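 GST-tagged yeast TFs (full-length or DNA-binding domain) were made by PURExpress in vitro transcription/translation and applied at about 100-200 nM to universal all-10-mer Agilent arrays. The arrays were made double-stranded by primer extension, on fresh or once-stripped slides. Bound protein was detected with fluorescent anti-GST, and scans were normalised with masliner. Each ungapped eight-base word, pooled with its reverse complement, received an E-score (modified Wilcoxon-Mann-Whitney statistic) from the Universal PBM Analysis Suite.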

Compared with TTACAGAA, AACATCAC is lower in “PBM E-score” value: 0.0115 for the first, -0.0011 for the second.

Going from GGAATCGA to ATACACAC, the “PBM E-score” value rises from 0.00927 to 0.077.

First: AGTCGTGG
Second: GAACAAAC
The “PBM E-score” value of the first is lower: -0.126 for the first, 0.0779 for the second.

Going from CGGATGTA to AGGAGGCA, the “PBM E-score” value falls from -0.0954 to -0.195.

Compared with AGGCTTCC, CCCGTGAA is higher in “PBM E-score” value: 0.0378 for the first, 0.064 for the second.

Going from GAATCGCC to TTGGTAAA, the “PBM E-score” value rises from -0.149 to 0.073.

First: GTAGAAAA
Second: TGATCTAA
The “PBM E-score” value of the first is lower: -0.0723 for the first, 0.0715 for the second.

Going from GGTCTGAA to AGCCGATA, the “PBM E-score” value falls from 0.123 to -0.15.

First: GCTGTGGA
Second: ACAGACGG
The “PBM E-score” value of the first is higher: 0.0345 for the first, -0.122 for the second.

Compared with AAATGGCC, ACTTACGG is higher in “PBM E-score” value: -0.0974 for the first, 0.0069 for the second.

Going from ATGAGGCC to CTTGACTC, the “PBM E-score” value falls from -0.0755 to -0.0762.

Going from CAGACGAG to CGCTTAAC, the “PBM E-score” value rises from -0.0718 to 0.15.

Going from CCGTCGTC to ATTCGCGC, the “PBM E-score” value rises from -0.165 to 0.17.

Compared with GGGCCACA, CCGTATCG is higher in “PBM E-score” value: -0.17 for the first, -0.122 for the second.

Going from CCGCGCAG to AAGGTCCA, the “PBM E-score” value falls from 0.105 to -0.122.

Compared with GTGTTGAA, GACCGATC is lower in “PBM E-score” value: 0.0548 for the first, -0.128 for the second.

Compared with ATTGAATG, CAAGTACG is lower in “PBM E-score” value: 0.144 for the first, -0.268 for the second.

Going from ATCCTGCA to AGTCCTCA, the “PBM E-score” value falls from 0.151 to -0.0221.

Going from CGCAGACG to AGAAGCCC, the “PBM E-score” value falls from 0.257 to 0.0204.

Compared with CATAGGTC, GGGCCCCA is lower in “PBM E-score” value: 0.0654 for the first, -0.271 for the second.

Compared with CAATCGTC, CTTACATA is higher in “PBM E-score” value: 0.114 for the first, 0.278 for the second.

First: ACGAAGGG
Second: TACTTTCA
The “PBM E-score” value of the first is lower: -0.146 for the first, 0.0645 for the second.

Going from CCGTCACA to ACCTTAGG, the “PBM E-score” value falls from -0.105 to -0.127.

Going from GGCGTTAC to ACGTAGGC, the “PBM E-score” value falls from -0.0303 to -0.169.

Going from AGATACCG to CTTGGCTC, the “PBM E-score” value falls from 0.0348 to -0.149.

Compared with AGCGGAGG, AAAGCTCT is lower in “PBM E-score” value: -0.243 for the first, -0.28 for the second.

Going from AACCTATC to GAATCACA, the “PBM E-score” value rises from -0.102 to 0.0724.

Going from CCCCCTTA to AGCTTGAC, the “PBM E-score” value rises from -0.366 to -0.247.

Compared with CCCTACTC, AATCTACA is higher in “PBM E-score” value: -0.0421 for the first, 0.0319 for the second.

Going from AGTGACAC to CGAGACGC, the “PBM E-score” value falls from 0.161 to 0.0549.

First: AATACATT
Second: AGGAGCAT
The “PBM E-score” value of the first is higher: -0.0548 for the first, -0.178 for the second.

Going from AGTTAACC to AAACGCTT, the “PBM E-score” value falls from -0.0205 to -0.0971.

Compared with TCTTAACA, CACTTGAA is lower in “PBM E-score” value: 0.0995 for the first, -0.118 for the second.

Compared with CGCATAGA, CAGTCAAA is lower in “PBM E-score” value: 0.0454 for the first, -0.108 for the second.

First: ACAGGCAC
Second: TATGGCGA
The “PBM E-score” value of the first is lower: -0.204 for the first, -0.121 for the second.

Going from CCCGATGA to ATAGAGAA, the “PBM E-score” value falls from 0.166 to 0.075.

Going from AGATAAGA to AGCGCAGC, the “PBM E-score” value falls from 0.193 to -0.166.

Going from CTTACAGA to CAATGCAG, the “PBM E-score” value falls from 0.0522 to 0.017.

Compared with CGTGACTA, CTAATCGA is higher in “PBM E-score” value: 0.015 for the first, 0.315 for the second.

Going from AATACCGA to ACTCTGAA, the “PBM E-score” value falls from 0.0631 to 0.0242.

Going from ACAATGTC to AAAAGTGG, the “PBM E-score” value rises from 0.11 to 0.139.

First: CCCTGCGG
Second: AACACTCT
The “PBM E-score” value of the first is lower: -0.272 for the first, 0.0621 for the second.

Going from ATTACTCA to ACTATGCC, the “PBM E-score” value falls from 0.325 to 0.0219.

Source: the supplement of paper PMC3334620
